# Measured values from patent US12721856B2, “Psilocybin compositions, methods of making and methods of using the same” (priority 2021, dated 2026).
# At least one compound was matched to its structure with a doubt left.
# Test: Hygroscopicity
# Type: physicochemical
# Settings: high humidity and when added to water
compound,measurement,value
CN(C)CCc1c[nH]c2cccc(OP(=O)(O)O)c12 [Psilocybin],Hygroscopicity,Psilocybin forms Hydrate A at high humidity
